Four substances from publication PMC2483982 can be followed below.

By UniProt entry, the sequences of proteins in these tests, tags left out.
UniProt P27361: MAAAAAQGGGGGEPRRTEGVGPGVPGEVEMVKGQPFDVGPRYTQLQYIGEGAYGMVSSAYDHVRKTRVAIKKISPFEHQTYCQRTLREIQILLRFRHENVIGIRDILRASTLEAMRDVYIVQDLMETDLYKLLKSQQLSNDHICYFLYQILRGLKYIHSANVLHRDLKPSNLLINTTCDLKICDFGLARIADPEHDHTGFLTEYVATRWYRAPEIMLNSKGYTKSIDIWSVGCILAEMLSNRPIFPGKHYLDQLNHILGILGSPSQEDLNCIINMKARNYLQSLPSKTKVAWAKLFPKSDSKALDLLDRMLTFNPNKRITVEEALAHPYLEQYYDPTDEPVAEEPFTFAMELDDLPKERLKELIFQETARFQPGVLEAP
UniProt P78527: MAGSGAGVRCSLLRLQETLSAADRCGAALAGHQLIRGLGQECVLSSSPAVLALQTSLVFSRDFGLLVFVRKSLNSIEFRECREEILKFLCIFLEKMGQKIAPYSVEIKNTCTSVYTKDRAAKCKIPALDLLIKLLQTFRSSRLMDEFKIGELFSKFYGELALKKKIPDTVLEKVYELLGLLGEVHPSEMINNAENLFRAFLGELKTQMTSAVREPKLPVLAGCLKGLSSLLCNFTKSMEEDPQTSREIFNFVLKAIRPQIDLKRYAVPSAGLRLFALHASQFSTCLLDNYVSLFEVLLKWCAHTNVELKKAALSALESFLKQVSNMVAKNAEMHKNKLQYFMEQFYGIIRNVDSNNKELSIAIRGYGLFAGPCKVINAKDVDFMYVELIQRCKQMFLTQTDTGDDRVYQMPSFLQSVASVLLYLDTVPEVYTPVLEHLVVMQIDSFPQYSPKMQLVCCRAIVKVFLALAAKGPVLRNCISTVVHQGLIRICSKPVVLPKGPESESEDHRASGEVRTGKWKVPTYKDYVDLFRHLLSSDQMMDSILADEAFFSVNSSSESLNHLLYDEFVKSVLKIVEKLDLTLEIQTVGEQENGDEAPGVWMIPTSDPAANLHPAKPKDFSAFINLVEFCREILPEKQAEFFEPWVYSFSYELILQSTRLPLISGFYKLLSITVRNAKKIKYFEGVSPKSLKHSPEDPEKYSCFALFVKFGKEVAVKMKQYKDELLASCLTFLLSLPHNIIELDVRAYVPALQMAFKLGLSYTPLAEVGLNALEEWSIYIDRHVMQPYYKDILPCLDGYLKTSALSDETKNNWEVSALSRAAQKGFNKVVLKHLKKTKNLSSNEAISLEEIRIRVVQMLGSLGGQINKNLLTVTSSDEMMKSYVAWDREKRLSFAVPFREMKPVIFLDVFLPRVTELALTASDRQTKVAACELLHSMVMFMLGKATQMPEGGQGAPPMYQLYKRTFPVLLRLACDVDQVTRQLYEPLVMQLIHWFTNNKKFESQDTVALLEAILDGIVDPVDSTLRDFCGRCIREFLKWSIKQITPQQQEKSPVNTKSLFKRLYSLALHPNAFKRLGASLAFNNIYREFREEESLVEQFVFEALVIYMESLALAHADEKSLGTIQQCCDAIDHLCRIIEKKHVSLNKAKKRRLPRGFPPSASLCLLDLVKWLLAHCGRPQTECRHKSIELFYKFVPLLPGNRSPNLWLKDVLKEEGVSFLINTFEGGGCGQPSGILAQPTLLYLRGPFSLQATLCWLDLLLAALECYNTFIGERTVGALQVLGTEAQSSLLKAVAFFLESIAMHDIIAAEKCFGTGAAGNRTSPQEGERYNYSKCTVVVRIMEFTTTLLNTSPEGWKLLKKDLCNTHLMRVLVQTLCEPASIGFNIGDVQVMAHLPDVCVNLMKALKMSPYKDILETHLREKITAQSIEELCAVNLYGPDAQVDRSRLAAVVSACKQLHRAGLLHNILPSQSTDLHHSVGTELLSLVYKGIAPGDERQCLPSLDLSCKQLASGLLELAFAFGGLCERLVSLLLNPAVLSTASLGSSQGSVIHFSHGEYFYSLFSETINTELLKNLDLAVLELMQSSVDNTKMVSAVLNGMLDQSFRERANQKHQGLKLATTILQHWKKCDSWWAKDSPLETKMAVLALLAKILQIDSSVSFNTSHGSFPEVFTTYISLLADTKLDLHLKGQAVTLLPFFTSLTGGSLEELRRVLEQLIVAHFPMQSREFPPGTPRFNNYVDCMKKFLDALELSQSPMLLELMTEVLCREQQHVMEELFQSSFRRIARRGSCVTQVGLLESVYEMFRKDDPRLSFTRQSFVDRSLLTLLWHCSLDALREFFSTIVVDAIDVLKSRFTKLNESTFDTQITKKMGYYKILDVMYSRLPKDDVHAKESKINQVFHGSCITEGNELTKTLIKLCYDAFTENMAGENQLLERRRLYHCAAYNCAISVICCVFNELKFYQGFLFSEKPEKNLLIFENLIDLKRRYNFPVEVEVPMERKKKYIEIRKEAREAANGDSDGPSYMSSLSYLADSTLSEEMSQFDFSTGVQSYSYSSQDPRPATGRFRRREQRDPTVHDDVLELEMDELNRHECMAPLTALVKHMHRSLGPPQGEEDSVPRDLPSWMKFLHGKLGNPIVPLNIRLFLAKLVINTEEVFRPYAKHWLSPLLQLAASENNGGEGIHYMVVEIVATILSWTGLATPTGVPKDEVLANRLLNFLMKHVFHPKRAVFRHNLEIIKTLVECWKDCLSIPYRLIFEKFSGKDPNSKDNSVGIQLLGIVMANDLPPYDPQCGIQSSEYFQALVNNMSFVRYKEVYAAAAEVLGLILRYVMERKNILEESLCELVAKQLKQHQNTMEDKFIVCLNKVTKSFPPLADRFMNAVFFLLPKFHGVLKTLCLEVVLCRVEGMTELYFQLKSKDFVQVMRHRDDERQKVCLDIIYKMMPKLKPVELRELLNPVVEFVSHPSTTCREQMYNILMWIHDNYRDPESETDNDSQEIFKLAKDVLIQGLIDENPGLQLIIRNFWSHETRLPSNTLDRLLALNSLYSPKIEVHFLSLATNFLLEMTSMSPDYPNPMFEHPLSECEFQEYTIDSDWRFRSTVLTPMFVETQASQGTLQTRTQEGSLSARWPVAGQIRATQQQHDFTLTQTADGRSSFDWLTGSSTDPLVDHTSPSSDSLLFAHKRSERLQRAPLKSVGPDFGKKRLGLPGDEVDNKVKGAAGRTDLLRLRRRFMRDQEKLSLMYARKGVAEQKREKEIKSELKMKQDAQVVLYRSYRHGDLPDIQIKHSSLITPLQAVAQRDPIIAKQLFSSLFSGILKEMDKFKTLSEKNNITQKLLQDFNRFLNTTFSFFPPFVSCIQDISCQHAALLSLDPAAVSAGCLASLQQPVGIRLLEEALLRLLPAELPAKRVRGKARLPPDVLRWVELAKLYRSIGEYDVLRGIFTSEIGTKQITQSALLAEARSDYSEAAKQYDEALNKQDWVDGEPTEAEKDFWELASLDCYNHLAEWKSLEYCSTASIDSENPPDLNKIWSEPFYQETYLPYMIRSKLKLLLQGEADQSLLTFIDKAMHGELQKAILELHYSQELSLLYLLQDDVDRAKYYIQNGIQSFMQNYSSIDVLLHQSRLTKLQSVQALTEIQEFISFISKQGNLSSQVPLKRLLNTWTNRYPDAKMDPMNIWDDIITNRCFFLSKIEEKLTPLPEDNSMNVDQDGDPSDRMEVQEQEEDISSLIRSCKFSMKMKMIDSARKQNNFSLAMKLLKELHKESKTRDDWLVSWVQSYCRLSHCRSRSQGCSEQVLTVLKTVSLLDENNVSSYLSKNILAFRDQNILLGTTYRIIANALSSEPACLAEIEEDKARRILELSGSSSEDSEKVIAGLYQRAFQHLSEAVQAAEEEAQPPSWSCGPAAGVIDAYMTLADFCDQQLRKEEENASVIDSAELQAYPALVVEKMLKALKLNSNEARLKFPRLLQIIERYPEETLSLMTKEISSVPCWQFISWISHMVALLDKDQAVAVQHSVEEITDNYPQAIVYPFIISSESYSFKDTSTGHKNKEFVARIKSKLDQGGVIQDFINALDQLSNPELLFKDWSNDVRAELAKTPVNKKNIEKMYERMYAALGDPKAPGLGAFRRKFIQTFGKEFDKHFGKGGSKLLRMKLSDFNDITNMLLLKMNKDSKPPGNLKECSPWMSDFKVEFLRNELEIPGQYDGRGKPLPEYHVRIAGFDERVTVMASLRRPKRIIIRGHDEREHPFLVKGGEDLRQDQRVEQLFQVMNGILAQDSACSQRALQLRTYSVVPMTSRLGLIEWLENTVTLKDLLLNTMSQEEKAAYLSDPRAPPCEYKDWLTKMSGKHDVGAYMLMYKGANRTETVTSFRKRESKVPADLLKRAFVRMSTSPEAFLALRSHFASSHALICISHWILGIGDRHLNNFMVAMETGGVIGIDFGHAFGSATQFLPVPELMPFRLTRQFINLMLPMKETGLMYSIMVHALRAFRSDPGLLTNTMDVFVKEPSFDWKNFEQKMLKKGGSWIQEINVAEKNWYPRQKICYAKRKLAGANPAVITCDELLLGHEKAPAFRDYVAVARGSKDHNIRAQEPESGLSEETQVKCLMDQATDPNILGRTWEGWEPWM
UniProt P28482: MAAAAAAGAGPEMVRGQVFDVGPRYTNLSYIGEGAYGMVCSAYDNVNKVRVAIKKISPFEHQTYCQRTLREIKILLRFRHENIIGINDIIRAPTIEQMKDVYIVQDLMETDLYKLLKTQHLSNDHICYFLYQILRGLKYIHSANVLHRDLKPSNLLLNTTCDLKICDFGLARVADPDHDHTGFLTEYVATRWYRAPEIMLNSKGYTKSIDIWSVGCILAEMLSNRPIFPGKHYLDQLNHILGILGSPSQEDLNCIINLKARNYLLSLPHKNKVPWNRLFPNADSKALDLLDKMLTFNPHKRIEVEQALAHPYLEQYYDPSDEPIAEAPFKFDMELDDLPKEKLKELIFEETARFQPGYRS

No constants are given. Whether binding was seen depends on the method and setting. Binding seen in cells or lysates may run through a third protein. Some entries that bind do so weakly or less than the wild type.

The target of assay [1] is T1, Annexin A1 (human (endogenous in cervical biopsy tissue)) (UniProt P04083).
T1 sequence: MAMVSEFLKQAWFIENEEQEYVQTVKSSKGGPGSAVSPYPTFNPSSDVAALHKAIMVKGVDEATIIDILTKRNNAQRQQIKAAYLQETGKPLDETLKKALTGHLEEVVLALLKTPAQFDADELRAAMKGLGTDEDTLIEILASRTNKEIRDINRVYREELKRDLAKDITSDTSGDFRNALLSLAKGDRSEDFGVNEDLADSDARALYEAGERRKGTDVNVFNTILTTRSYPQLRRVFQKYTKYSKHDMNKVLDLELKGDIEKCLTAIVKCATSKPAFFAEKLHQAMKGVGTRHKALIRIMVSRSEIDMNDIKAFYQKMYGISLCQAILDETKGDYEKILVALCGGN
Put plainly: co-IP; data not shown; lysates of human cervical biopsies; annexin A1 in complex with pERK and pMEK; which antibody precipitated is not told.

Assay [2] addresses T1, Annexin A1 (human (endogenous in cervical biopsy tissue)). Put plainly: co-IP; lysates of human cervical biopsies; DNA-PKcs with annexin A1; told only in the discussion, kind of specimen not told.

Take “phosphorylated activated ERK1 (from UniProt P27361 1-379)”: the binding entry in assay [1] is “binds”.

Take “phosphorylated activated MEK1 (from UniProt Q02750 1-393)”: the binding entry in assay [1] is “binds”.

Consider “DNA-Protein Kinase catalytic subunit (from UniProt P78527 1-4128)”, for which the binding result in assay [2] is recorded as “binds”.

Consider “phosphorylated activated ERK2 (from UniProt P28482 1-360)”, for which the binding entry in assay [1] is on record as “binds”.
